Data from article PMC12597828.
No constants are given. Whether binding was seen depends on the method and setting. Some entries that bind do so weakly or less than the wild type. Where a sequence is shown, tags or fusion partners need not be part of it.

The chains behind the UniProt entries cited, without tags or fusion partners.
UniProt Q6KC79: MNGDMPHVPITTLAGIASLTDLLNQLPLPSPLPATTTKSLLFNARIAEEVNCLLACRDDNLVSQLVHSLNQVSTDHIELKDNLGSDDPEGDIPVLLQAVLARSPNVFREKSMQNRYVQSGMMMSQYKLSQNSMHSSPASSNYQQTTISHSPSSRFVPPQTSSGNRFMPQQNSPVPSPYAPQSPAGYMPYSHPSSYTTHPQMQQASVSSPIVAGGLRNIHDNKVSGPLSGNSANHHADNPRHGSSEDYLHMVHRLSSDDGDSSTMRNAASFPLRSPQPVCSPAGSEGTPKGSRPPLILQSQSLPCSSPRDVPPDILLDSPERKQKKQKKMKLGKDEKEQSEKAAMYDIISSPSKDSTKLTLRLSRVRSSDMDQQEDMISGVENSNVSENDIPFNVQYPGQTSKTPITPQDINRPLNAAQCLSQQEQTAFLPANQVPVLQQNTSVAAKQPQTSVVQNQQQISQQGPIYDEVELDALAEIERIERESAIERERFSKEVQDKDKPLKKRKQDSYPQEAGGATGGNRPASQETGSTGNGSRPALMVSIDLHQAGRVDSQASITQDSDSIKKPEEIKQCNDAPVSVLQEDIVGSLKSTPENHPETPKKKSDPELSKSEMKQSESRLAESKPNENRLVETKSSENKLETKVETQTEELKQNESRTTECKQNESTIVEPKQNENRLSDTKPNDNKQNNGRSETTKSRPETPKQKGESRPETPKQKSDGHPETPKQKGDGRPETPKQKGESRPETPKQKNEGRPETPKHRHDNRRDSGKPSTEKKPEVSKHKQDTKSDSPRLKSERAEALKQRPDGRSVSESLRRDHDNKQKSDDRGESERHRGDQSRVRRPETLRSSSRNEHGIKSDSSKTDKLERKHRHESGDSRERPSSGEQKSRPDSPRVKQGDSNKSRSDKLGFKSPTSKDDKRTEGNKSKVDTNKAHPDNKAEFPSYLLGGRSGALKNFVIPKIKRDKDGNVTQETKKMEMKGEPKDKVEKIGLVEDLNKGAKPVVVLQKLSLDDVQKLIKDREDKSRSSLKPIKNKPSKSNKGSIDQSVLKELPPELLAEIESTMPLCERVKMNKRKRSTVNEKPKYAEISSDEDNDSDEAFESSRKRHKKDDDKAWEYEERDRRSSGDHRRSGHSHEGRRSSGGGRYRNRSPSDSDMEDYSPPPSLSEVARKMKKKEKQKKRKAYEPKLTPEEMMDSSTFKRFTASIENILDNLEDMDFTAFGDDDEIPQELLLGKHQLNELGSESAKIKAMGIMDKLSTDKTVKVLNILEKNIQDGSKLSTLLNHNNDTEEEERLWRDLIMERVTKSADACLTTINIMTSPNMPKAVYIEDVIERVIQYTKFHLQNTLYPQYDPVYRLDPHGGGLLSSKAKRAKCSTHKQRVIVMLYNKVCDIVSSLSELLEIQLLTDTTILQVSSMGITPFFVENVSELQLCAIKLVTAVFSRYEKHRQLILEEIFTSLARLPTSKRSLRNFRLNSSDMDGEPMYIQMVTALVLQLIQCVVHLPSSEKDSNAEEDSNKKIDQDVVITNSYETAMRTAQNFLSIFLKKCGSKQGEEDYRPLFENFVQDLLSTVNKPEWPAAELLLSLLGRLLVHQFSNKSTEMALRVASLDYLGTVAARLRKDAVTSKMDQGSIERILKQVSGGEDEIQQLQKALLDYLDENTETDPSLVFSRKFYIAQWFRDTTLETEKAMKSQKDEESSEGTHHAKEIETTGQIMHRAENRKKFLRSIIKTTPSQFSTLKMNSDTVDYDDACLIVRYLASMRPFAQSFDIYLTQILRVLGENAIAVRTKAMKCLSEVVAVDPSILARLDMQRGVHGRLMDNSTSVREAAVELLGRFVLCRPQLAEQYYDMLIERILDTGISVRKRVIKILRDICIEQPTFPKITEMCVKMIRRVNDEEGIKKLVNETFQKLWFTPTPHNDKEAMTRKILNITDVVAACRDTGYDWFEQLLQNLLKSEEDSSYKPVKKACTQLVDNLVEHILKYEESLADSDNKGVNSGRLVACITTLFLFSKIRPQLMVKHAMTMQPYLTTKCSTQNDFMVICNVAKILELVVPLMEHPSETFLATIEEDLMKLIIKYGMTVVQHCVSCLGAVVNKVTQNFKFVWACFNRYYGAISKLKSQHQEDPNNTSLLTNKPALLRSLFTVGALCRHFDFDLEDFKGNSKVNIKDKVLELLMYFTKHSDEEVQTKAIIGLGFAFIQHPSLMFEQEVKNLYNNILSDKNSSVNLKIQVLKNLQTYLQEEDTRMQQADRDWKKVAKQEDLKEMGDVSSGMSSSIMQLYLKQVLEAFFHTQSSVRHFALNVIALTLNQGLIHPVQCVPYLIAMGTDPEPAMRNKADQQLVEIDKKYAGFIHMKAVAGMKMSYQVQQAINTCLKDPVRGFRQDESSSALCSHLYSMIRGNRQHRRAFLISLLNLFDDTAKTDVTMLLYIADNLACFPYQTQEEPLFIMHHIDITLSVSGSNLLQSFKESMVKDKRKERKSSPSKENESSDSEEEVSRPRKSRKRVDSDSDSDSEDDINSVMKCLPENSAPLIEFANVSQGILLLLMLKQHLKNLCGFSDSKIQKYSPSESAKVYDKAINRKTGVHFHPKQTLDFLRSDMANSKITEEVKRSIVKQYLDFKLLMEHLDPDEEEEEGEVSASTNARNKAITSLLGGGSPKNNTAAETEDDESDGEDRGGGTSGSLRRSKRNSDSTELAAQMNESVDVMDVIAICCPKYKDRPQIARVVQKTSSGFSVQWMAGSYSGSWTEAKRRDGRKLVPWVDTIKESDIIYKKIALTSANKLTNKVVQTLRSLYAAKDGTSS

Molecular target: T1, TetR–FLAG–MAU2 (UniProt Q9Y6X3)
T1 sequence: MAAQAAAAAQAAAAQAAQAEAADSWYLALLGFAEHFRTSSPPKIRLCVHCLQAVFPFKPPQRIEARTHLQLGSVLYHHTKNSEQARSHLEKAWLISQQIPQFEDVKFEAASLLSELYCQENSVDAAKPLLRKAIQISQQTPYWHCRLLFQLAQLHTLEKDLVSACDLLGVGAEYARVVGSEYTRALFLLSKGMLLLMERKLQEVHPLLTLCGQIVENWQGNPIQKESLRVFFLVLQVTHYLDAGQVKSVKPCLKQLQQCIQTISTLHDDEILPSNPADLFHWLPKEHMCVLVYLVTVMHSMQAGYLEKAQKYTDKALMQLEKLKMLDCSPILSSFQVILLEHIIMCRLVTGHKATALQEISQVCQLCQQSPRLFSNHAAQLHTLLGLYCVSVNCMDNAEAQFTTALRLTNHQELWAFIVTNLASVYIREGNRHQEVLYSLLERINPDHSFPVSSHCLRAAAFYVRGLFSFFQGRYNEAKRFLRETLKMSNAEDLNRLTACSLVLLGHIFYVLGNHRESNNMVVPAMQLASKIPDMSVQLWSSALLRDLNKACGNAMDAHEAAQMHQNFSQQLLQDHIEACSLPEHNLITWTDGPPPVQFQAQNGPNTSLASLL
Assay: ChIP (qPCR and sequencing) of factors co-recruited to TetO arrays by a tethered TetR fusion; HAP1 cells with 27 genomic TetO platforms stably expressing TetR–FLAG–MAU2 or TetR–FLAG–mCherry; 1% formaldehyde cross-linking for 10 min; ChIP with an antibody to each factor (anti-V5 for V5–MAU2); TetO DNA read by qPCR or sequencing; enrichment relative to Cherry cells; recruitment was lost after 1 h doxycycline; NIPBL recruitment was also tested after 2 h RAD21 depletion

In the case of NIPBL (from UniProt Q6KC79 1-2804), the binding is reported as “binds”.

B1: RAD21 (protein, UniProt O60216 1-631)
chain: MFYAHFVLSKRGPLAKIWLAAHWDKKLTKAHVFECNLESSVESIISPKVKMALRTSGHLLLGVVRIYHRKAKYLLADCNEAFIKIKMAFRPGVVDLPEENREAAYNAITLPEEFHDFDQPLPDLDDIDVAQQFSLNQSRVEEITMREEVGNISILQENDFGDFGMDDREIMREGSAFEDDDMLVSTTTSNLLLESEQSTSNLNEKINHLEYEDQYKDDNFGEGNDGGILDDKLISNNDGGIFDDPPALSEAGVMLPEQPAHDDMDEDDNVSMGGPDSPDSVDPVEPMPTMTDQTTLVPNEEEAFALEPIDITVKETKAKRKRKLIVDSVKELDSKTIRAQLSDYSDIVTTLDLAPPTKKLMMWKETGGVEKLFSLPAQPLWNNRLLKLFTRCLTPLVPEDLRKRRKGGEADNLDEFLKEFENPEVPREDQQQQHQQRDVIDEPIIEEPSRLQESVMEASRTNIDESAMPPPPPQGVKRKAGQIDPEPVMPPQQVEQMEIPPVELPPEEPPNICQLIPELELLPEKEKEKEKEKEDDEEEEDEDASGGDQDQEERRWNKRTQQMLHGLQRALAKTGAESISLLELCRNTNRKQAAAKFYSFLVLKKQQAIELTQEEPYSDIIATPGPRFHII
With B1 the binding was “binds”.

B2: STAG2 (protein, UniProt Q8N3U4 1-1231)
chain: MIAAPEIPTDFNLLQESETHFSSDTDFEDIEGKNQKQGKGKTCKKGKKGPAEKGKGGNGGGKPPSGPNRMNGHHQQNGVENMMLFEVVKMGKSAMQSVVDDWIESYKHDRDIALLDLINFFIQCSGCKGVVTAEMFRHMQNSEIIRKMTEEFDEDSGDYPLTMAGPQWKKFKSSFCEFIGVLVRQCQYSIIYDEYMMDTVISLLTGLSDSQVRAFRHTSTLAAMKLMTALVNVALNLSINMDNTQRQYEAERNKMIGKRANERLELLLQKRKELQENQDEIENMMNAIFKGVFVHRYRDAIAEIRAICIEEIGIWMKMYSDAFLNDSYLKYVGWTMHDKQGEVRLKCLTALQGLYYNKELNSKLELFTSRFKDRIVSMTLDKEYDVAVQAIKLLTLVLQSSEEVLTAEDCENVYHLVYSAHRPVAVAAGEFLYKKLFSRRDPEEDGMMKRRGRQGPNANLVKTLVFFFLESELHEHAAYLVDSMWDCATELLKDWECMNSLLLEEPLSGEEALTDRQESALIEIMLCTIRQAAECHPPVGRGTGKRVLTAKEKKTQLDDRTKITELFAVALPQLLAKYSVDAEKVTNLLQLPQYFDLEIYTTGRLEKHLDALLRQIRNIVEKHTDTDVLEACSKTYHALCNEEFTIFNRVDISRSQLIDELADKFNRLLEDFLQEGEEPDEDDAYQVLSTLKRITAFHNAHDLSKWDLFACNYKLLKTGIENGDMPEQIVIHALQCTHYVILWQLAKITESSSTKEDLLRLKKQMRVFCQICQHYLTNVNTTVKEQAFTILCDILMIFSHQIMSGGRDMLEPLVYTPDSSLQSELLSFILDHVFIEQDDDNNSADGQQEDEASKIEALHKRRNLLAAFCKLIVYTVVEMNTAADIFKQYMKYYNDYGDIIKETMSKTRQIDKIQCAKTLILSLQQLFNEMIQENGYNFDRSSSTFSGIKELARRFALTFGLDQLKTREAIAMLHKDGIEFAFKEPNPQGESHPPLNLAFLDILSEFSSKLLRQDKRTVYVYLEKFMTFQMSLRREDVWLPLMSYRNSLLAGGDDDTMSVISGISSRGSTVRSKKSKPSTGKRKVVEGMQLSLTEESSSSDSMWLSREQTLHTPVMMQTPQLTSTIMREPKRLRPEDSFMSVYPMQTEHHQTPLDYNRRGTSLMEDDEEPIVEDVMMSSEGRIEDLNEGMDFDTMDIDLPPSKNRRERTELKPDFFDPASIMDESVLGVSMF
With B2 the binding was “binds”.
